# Reference: the supplement of paper PMC10849652
# Chains of the proteins cited; added tags and fusions are not shown. Lines headed by an entry give the natural chain unless they say otherwise; changes in a name come on top.
# UniProt Q9NR31: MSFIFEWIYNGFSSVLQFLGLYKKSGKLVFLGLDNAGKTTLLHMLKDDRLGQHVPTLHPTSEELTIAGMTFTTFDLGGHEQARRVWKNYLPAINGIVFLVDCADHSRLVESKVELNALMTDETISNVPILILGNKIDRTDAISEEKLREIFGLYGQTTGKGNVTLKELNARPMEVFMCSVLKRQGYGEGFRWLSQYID
# UniProt Q8IZE3: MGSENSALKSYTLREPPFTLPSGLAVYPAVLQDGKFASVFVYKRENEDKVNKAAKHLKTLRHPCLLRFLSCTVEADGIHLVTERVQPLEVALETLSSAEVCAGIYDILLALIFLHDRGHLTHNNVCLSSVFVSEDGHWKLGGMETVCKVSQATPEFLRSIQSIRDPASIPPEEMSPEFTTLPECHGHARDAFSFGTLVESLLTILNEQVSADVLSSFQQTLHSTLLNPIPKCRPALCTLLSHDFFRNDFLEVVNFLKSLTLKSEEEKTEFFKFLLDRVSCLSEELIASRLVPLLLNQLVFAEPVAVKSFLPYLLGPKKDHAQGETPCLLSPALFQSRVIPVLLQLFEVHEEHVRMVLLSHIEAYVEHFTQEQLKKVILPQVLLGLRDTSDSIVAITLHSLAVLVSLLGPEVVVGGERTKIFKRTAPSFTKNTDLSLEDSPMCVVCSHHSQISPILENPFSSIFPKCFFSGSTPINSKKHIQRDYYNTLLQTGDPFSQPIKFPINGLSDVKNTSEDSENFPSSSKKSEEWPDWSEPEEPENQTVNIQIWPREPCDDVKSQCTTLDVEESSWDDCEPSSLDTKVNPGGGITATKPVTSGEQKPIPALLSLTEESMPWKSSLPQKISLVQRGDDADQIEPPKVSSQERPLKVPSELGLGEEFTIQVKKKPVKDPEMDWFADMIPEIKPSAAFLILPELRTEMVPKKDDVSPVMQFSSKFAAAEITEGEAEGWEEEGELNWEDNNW
# UniProt Q15436: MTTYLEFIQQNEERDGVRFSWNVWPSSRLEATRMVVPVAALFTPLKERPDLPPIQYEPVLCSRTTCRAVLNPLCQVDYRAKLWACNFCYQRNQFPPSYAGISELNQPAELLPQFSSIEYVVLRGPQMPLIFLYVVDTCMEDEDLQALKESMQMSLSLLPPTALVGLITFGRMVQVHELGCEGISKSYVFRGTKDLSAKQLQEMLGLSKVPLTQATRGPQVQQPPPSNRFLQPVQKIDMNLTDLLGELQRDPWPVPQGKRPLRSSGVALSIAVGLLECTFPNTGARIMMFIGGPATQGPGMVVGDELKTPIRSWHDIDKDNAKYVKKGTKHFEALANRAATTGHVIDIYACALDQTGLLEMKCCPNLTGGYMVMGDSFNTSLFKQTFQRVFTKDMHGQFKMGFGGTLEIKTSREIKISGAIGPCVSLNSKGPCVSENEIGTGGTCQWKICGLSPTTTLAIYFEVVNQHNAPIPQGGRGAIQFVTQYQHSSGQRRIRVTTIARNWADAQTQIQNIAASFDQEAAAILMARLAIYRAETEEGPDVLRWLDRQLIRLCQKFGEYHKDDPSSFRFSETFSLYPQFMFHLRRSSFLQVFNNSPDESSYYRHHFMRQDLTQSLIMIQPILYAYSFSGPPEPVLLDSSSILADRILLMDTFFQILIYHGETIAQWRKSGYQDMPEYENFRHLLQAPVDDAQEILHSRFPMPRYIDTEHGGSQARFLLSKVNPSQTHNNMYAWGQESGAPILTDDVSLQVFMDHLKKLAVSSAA
# UniProt Q99590: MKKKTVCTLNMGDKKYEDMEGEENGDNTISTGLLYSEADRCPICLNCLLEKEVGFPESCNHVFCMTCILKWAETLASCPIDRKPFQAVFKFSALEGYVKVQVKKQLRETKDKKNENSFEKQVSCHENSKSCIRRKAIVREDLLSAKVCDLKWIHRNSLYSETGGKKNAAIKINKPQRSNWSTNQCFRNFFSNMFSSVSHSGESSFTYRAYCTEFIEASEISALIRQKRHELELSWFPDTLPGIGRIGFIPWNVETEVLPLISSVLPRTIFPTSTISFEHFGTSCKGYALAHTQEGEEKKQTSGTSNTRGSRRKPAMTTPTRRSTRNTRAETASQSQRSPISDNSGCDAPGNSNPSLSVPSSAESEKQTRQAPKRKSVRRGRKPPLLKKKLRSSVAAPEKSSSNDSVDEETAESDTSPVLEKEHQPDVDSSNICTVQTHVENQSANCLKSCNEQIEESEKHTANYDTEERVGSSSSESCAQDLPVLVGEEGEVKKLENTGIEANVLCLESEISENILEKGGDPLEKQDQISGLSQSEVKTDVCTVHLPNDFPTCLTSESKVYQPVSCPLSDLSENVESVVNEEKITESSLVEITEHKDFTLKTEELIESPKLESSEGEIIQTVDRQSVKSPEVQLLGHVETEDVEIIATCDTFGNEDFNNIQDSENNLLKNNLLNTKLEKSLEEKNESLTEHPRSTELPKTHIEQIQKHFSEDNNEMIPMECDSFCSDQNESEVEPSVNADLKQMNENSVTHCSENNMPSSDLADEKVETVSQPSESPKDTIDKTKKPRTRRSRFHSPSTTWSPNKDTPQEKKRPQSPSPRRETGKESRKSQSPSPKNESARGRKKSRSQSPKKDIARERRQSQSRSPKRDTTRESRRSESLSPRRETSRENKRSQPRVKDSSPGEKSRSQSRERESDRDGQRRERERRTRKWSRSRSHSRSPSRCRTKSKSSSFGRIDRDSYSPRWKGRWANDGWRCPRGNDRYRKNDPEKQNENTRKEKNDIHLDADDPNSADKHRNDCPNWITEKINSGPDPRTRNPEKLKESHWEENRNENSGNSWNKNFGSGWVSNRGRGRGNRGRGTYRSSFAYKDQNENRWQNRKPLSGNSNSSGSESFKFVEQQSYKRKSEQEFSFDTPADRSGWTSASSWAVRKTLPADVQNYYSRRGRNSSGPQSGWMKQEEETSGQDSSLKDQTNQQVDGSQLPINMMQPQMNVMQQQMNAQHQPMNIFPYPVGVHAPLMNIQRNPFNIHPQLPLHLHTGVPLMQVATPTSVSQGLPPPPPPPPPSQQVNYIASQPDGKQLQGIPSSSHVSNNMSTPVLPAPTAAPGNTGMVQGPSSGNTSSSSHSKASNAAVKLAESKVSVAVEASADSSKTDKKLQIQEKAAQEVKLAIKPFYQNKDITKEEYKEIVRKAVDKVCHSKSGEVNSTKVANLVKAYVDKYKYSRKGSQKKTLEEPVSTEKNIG
# UniProt O94885: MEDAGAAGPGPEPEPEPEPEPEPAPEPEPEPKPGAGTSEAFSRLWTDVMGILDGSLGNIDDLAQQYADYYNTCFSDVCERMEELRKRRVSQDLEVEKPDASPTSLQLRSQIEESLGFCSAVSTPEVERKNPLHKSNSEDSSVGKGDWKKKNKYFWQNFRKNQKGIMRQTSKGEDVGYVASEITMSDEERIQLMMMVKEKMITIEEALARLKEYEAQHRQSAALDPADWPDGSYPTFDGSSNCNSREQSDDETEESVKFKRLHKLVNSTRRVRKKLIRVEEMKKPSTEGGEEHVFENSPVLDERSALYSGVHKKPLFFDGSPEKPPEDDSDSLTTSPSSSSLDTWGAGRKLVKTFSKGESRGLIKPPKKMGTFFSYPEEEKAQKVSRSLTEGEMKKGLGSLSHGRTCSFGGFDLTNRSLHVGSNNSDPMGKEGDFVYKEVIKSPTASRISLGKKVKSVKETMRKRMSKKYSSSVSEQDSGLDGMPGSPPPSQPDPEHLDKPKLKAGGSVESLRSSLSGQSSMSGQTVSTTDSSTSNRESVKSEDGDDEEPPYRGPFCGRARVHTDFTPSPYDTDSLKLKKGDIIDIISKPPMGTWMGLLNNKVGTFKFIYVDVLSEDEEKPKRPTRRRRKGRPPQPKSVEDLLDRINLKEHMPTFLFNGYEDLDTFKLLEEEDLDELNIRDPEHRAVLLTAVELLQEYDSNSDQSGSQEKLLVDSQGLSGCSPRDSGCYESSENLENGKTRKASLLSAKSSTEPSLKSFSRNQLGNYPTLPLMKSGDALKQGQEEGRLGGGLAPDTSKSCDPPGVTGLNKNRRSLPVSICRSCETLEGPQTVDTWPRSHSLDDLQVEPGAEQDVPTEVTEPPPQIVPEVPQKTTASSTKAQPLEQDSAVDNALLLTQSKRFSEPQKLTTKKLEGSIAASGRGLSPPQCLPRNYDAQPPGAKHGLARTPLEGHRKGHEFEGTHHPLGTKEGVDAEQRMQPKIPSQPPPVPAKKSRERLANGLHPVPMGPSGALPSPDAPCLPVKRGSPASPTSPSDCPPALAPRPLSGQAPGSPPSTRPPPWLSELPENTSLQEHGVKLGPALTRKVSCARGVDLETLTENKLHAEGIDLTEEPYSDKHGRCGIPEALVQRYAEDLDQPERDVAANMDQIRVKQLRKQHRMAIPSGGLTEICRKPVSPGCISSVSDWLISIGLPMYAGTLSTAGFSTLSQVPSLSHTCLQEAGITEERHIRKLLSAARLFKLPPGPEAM
# UniProt Q96GA7: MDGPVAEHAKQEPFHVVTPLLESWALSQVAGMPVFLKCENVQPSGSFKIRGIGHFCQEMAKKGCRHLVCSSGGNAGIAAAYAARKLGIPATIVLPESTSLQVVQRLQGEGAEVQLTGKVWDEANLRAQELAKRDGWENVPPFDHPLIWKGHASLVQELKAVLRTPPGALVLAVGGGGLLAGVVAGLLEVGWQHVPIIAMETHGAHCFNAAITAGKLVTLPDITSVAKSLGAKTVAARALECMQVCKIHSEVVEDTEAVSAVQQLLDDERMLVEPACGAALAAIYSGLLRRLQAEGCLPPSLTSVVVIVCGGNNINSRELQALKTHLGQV
# UniProt Q9NRP4: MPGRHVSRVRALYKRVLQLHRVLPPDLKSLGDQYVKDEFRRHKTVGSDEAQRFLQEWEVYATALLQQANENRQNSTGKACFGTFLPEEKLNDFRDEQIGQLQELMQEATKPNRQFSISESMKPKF
# UniProt O00422: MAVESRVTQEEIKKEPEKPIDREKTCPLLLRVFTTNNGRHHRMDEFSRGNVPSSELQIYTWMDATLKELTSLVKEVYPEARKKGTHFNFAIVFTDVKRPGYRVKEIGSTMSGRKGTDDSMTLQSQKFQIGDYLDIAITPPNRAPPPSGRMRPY
# UniProt Q9Y6Y8: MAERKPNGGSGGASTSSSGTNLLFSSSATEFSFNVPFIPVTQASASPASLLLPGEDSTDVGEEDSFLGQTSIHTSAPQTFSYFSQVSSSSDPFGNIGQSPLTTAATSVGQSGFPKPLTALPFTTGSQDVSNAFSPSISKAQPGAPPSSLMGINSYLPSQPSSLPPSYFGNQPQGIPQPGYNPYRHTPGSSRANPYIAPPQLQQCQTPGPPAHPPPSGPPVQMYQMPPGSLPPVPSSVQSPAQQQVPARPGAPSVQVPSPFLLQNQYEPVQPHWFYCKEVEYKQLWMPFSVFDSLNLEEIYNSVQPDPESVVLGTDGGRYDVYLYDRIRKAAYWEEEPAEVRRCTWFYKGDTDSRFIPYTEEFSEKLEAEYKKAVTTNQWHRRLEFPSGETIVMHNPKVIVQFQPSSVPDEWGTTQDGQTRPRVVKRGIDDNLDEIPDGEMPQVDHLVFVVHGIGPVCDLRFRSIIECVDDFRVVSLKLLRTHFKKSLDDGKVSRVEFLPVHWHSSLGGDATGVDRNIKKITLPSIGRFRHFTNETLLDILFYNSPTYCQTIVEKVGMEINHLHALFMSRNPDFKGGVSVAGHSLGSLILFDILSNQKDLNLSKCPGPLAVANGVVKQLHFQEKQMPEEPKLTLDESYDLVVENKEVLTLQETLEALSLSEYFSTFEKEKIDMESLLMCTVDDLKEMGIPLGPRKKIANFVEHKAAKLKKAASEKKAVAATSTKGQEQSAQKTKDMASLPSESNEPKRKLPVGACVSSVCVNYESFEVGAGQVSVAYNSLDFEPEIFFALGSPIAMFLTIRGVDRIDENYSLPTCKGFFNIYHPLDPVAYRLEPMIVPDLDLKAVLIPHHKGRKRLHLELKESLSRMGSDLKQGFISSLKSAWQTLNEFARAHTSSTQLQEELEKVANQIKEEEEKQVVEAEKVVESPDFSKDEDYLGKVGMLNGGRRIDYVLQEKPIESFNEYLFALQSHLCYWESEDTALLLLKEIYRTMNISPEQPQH
# UniProt O43819: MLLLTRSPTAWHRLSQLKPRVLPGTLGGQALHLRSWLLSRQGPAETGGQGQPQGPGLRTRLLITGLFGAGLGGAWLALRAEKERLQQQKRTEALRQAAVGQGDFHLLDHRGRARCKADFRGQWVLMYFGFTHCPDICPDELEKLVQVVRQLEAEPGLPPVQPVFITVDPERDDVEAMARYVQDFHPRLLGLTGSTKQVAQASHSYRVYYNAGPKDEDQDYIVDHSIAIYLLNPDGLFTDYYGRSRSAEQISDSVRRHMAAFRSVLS
# UniProt Q9UHR5: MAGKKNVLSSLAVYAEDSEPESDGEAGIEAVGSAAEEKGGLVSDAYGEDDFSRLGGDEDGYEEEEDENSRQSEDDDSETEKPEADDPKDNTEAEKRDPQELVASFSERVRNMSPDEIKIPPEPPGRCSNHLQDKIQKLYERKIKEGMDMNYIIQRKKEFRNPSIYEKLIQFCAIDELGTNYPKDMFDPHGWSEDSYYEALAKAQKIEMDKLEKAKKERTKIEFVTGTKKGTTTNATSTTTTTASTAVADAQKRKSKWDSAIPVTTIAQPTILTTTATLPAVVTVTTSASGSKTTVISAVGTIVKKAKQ
# This is one part of the list.
# Legend:
# Assay in all cases: log2 fold change, soluble protein after heating vs DMSO (PISA); higher = thermal stabilisation; K562 cells, 10 uM, 30 min; active = over 0.2 and 3.5 SD of the protein, either way, in both replicates (recomputed)
# [1] = compound: C1=CC=C(C=C1)[C@H](COC2=CC3=C(C=C2)NC(=O)N3)NC(=O)C4=CC=CN(C4=O)CC5=CC(=C(C=C5)F)F
# Method in brief: (§1)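 Soluble protein was defined as the supernatant after 21,000xg for 90 min. It came from K562 cells at 2×10^6 cells/mL given 10 μM compound for 30 min, heated in aliquots for 3 min across 48°C-58°C, pooled, and extracted in PBS with 0.5% NP-40 at 4°C, and was quantified by TMTpro 16plex LC-MS/MS with equalised channel sums. Thermal stability against control samples, from duplicates, is reported as log2 fold change.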
# [2] = compound: CC1=C(SC2=C1C(=N[C@H](C3=NN=C(N32)C)CC(=O)N)C4=CC=C(C=C4)Cl)C
# Method in brief: as §1
# [3] = compound: CC1=C2C(=CC=C1)N=C(N(C2=O)C3=CC=CC=C3C)CN4C=NC5=C(N=CN=C54)N
# Method in brief: as §1
# [4] = compound: Cc1sc2c(c1C)C(c1ccc(Cl)cc1)=N[C@@H](CC(=O)OC(C)(C)C)c1nnc(C)n1-2
# Method in brief: as §1
# [5] = compound: c1ccc([C@@H]2C[C@H]2NC2CCNCC2)cc1
# Method in brief: as §1
Target,log2 fold change [1],log2 fold change [2],log2 fold change [3],log2 fold change [4],log2 fold change [5]
SCPEP1 (UniProt Q9HB40),inactive: 0.006,inactive: -0.006,inactive: -0.001,inactive: 0.007,inactive: -0.007
SCLT1 (UniProt Q96NL6),inactive: 0.078,inactive: 0.215,inactive: 0.222,inactive: 0.001,inactive: -0.039
S100A11 (UniProt P31949),inactive: 0.03,inactive: 0.118,inactive: 0.066,inactive: -0.136,inactive: -0.017
SAR1A (UniProt Q9NR31),inactive: -0.045,inactive: -0.06,inactive: -0.075,inactive: -0.009,inactive: 0.064
S100A2 (UniProt P29034),inactive: -0.094,inactive: 0.253,inactive: 0.492,inactive: 0.032,inactive: -0.088
RTRAF (UniProt Q9Y224),inactive: 0.001,inactive: -0.027,inactive: -0.027,inactive: 0.078,inactive: -0.005
SCYL3 isoform 2 (UniProt Q8IZE3),inactive: -0.014,inactive: -0.006,inactive: 0.055,inactive: 0.041,inactive: -0.113
RSF1 (UniProt Q96T23),inactive: -0.102,inactive: 0.091,inactive: 0.096,inactive: -0.061,inactive: -0.018
SEC23A (UniProt Q15436),inactive: 0.006,inactive: 0.052,inactive: 0.078,inactive: 0.027,inactive: 0.075
SARAF (UniProt Q96BY9),inactive: 0.039,inactive: -0.136,inactive: 0.173,inactive: 0.174,inactive: 0.144
SCAF11 (UniProt Q99590),inactive: -0.104,inactive: -0.098,inactive: 0.021,inactive: 0.064,inactive: 0.016
SASH1 (UniProt O94885),inactive: -0.044,inactive: 0.092,inactive: 0.037,inactive: -0.045,inactive: -0.161
SDSL (UniProt Q96GA7),inactive: 0.021,inactive: -0.039,inactive: -0.068,inactive: -0.016,inactive: 0.038
SDF4 (UniProt Q9BRK5),inactive: 0.006,inactive: -0.003,inactive: -0.006,inactive: -0.016,inactive: 0.008
SDHAF3 (UniProt Q9NRP4),inactive: -0.037,inactive: 0.045,inactive: 0.006,inactive: -0.024,inactive: -0.031
RWDD4 (UniProt Q6NW29),inactive: -0.03,inactive: -0.007,inactive: 0.071,inactive: 0.067,inactive: -0.009
SBF1 isoform 4 (UniProt O95248),inactive: 0.03,inactive: -0.26,inactive: -0.18,inactive: 0.102,inactive: -0.044
S100PBP (UniProt Q96BU1),inactive: -0.062,inactive: -0.085,inactive: 0.093,inactive: -0.022,inactive: -0.094
SAP18 isoform 2 (UniProt O00422),inactive: 0.065,inactive: -0.156,inactive: -0.131,inactive: 0.015,inactive: 0.025
RTN4 isoform 2 (UniProt Q9NQC3),inactive: -0.013,inactive: 0.053,inactive: 0.033,inactive: -0.055,inactive: 0.101
SEC11C (UniProt Q9BY50),inactive: -0.047,inactive: 0.019,inactive: 0.042,inactive: -0.019,inactive: -0.026
SACS (UniProt Q9NZJ4),inactive: -0.02,inactive: 0.018,inactive: 0.034,inactive: 0.009,inactive: -0.09
RSL1D1 (UniProt O76021),inactive: 0.18,inactive: -0.349,inactive: -0.241,inactive: 0.178,inactive: 0.031
SEC23IP (UniProt Q9Y6Y8),inactive: -0.037,inactive: 0.001,inactive: 0.063,inactive: 0.031,inactive: -0.037
SCO2 (UniProt O43819),inactive: -0.03,inactive: -0.108,inactive: -0.041,inactive: -0.098,inactive: 0.023
SAP30BP (UniProt Q9UHR5),inactive: -0.004,inactive: -0.01,inactive: 0.039,inactive: 0.002,inactive: 0.023
SCCPDH (UniProt Q8NBX0),inactive: -0.047,inactive: 0.087,inactive: 0.002,inactive: -0.003,inactive: -0.059
RTN4IP1 (UniProt Q8WWV3),inactive: 0,inactive: 0.07,active: 0.999,inactive: -0.051,inactive: -0.108

# An excerpt taken from the entries so far, for reference:
Target,log2 fold change [1],log2 fold change [2],log2 fold change [3],log2 fold change [4],log2 fold change [5]
RWDD4 (UniProt Q6NW29),inactive: -0.03,inactive: -0.007,inactive: 0.071,inactive: 0.067,inactive: -0.009
SBF1 isoform 4 (UniProt O95248),inactive: 0.03,inactive: -0.26,inactive: -0.18,inactive: 0.102,inactive: -0.044
S100PBP (UniProt Q96BU1),inactive: -0.062,inactive: -0.085,inactive: 0.093,inactive: -0.022,inactive: -0.094
SAP18 isoform 2 (UniProt O00422),inactive: 0.065,inactive: -0.156,inactive: -0.131,inactive: 0.015,inactive: 0.025
RTN4 isoform 2 (UniProt Q9NQC3),inactive: -0.013,inactive: 0.053,inactive: 0.033,inactive: -0.055,inactive: 0.101
SEC11C (UniProt Q9BY50),inactive: -0.047,inactive: 0.019,inactive: 0.042,inactive: -0.019,inactive: -0.026
SACS (UniProt Q9NZJ4),inactive: -0.02,inactive: 0.018,inactive: 0.034,inactive: 0.009,inactive: -0.09
RSL1D1 (UniProt O76021),inactive: 0.18,inactive: -0.349,inactive: -0.241,inactive: 0.178,inactive: 0.031
